Results reported in publication PMC3350483, “Versatile Toolbox for High Throughput Biochemical and Functional Studies with Fluorescent Fusion Proteins” (PLoS ONE, 2012).
These are yes or no findings as the source states them, for the method shown.

Chains of the proteins cited; added tags and fusions are not shown. Lines headed by an entry give the natural chain unless they say otherwise; changes in a name come on top.
UniProt P13864: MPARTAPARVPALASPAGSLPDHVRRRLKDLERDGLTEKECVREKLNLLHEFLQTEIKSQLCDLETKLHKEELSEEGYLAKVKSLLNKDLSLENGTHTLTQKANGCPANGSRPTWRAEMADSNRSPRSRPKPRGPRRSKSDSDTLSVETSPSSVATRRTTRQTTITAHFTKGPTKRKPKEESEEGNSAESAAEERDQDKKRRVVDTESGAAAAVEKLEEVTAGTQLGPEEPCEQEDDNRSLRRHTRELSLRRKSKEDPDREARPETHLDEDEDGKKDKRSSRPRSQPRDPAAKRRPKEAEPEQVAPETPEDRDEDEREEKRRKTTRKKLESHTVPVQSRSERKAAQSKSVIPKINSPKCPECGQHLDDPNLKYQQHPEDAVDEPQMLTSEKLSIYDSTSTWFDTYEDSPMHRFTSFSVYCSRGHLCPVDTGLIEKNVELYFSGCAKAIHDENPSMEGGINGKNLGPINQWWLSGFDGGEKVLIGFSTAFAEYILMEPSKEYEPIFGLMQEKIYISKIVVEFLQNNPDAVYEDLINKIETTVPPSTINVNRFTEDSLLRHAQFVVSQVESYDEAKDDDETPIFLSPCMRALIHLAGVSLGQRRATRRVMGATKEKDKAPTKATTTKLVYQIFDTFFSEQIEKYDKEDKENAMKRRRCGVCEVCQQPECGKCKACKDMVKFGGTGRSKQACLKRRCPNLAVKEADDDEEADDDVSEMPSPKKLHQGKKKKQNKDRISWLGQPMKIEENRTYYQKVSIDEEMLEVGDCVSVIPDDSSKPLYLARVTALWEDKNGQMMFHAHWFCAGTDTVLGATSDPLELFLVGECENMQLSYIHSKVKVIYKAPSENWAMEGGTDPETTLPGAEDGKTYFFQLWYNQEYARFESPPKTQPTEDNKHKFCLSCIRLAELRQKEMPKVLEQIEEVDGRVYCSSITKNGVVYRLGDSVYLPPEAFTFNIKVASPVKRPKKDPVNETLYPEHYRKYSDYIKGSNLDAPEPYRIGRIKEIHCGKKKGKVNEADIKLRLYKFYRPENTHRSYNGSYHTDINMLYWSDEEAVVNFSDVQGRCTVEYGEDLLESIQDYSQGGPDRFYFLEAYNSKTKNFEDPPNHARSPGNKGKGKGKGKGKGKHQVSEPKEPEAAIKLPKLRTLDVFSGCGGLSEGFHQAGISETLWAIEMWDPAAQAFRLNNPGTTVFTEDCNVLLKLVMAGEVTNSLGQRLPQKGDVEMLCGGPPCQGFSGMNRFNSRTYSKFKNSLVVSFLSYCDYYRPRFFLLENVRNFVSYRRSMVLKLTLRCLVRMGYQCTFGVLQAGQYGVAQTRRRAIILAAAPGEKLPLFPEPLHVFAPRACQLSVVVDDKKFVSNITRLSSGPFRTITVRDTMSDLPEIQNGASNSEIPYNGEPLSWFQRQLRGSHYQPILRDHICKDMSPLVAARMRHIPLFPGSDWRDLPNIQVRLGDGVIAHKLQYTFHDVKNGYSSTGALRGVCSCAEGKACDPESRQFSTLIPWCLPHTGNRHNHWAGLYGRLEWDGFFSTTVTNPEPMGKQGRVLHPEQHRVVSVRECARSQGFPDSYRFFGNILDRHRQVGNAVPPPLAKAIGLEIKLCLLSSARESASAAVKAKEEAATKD
UniProt P18887: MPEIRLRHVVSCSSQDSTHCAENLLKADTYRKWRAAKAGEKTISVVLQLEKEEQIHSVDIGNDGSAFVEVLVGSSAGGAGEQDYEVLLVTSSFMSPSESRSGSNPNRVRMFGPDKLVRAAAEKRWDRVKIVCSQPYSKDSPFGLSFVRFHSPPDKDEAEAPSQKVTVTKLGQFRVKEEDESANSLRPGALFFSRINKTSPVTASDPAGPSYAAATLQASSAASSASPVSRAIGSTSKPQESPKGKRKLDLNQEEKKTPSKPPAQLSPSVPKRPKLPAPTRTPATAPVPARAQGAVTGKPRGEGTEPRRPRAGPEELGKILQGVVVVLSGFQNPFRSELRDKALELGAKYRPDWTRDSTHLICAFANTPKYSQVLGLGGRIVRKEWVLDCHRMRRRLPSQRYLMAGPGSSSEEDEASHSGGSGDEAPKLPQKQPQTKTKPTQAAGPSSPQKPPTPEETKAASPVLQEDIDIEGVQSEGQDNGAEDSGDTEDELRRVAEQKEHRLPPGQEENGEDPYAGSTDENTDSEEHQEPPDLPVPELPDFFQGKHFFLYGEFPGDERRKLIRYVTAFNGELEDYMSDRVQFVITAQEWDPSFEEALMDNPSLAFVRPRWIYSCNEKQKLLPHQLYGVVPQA

Molecular target: GFP-Dnmt1ΔPBD (Dnmt1 lacking the PBD domain) (UniProt P13864)
Experiment: GFP-multiTrap plate binding assay, fluorescence read-out; GFP fusion held on the GFP-multiTrap plate, blocked with 3% milk, incubated with HEK293T cellular extract holding the RFP fusion for 30 min at RT; molar ratio of bound RFP fusion over GFP fusion by plate reader; only the target purified

RFP-Xrcc1 (from UniProt P18887 1-633)
binding: no binding
